Laboratory results: the supplement of paper PMC12823440, “Inhibitors supercharge kinase turnover through native proteolytic circuits” (Nature, 2025)
Where a name gives a salt, the structure may show the parent alone. The list shows a part of the results. Hit calls seldom repeat between salt and free forms of one compound.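 Kinases, fused to nanoluciferase, were expressed in K562 cells; luminescence was measured every 4 h from 2 to 18 h as percent of control (DMSO = 100%, positive control = 0%). A time point is decreased if signal falls significantly (2 sigma). Hits were called by the authors by a rule that is not shown; the count of time points alone does not decide it.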

Sequences of proteins named here, by UniProt entry; tags and fusion partners are left off. A change or cut given only in a name is not applied to a line headed by its entry.
UniProt P42680: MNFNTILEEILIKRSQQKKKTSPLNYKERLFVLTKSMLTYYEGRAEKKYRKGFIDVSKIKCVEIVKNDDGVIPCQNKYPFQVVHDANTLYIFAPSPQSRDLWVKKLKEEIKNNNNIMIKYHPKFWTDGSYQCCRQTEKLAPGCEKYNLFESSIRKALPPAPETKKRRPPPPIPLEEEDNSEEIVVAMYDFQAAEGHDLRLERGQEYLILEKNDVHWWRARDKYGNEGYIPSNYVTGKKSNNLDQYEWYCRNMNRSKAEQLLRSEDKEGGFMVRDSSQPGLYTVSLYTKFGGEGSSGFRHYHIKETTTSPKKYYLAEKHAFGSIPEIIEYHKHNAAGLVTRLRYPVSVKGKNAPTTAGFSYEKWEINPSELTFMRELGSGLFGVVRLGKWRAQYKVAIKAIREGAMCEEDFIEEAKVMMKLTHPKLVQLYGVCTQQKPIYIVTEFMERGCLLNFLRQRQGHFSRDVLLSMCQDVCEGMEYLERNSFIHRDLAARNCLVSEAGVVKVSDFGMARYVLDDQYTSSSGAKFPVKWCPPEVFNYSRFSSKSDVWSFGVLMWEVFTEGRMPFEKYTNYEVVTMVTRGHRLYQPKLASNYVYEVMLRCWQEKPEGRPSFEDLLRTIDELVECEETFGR

Target: TEC (UniProt P42680)
Experiment: number of time points (of 5) at which kinase-Nluc abundance scored as decreased, DMSO-normalised (count); higher = more persistent destabilization
Details: K562; 2-18 h

SMILES	number of time points
CC(C)n1ncnc1-c1cn2c(n1)-c1ccc(O[C@@H](C)C(N)=O)cc1OCC2 (10 µM)	0
O=C(c1cccc(Cl)c1F)N1CCN(Cc2cccc(Nc3nccs3)n2)CC1 (2.5 µM)	0
COc1cc(F)ccc1-c1ncnc(Nc2cccc(C[S@](C)(=N)=O)c2)n1 [Atuveciclib] (2.5 µM)	1
Cc1cnc(NC(=O)c2cc(Oc3cnc(C(=O)N(C)C)nc3)c3cc(C)oc3c2)cn1 (10 µM)	0
CC1=C(C(=O)Nc2cc3cn[nH]c3cc2F)C(c2ccc(C(F)(F)F)cc2)CC(=O)N1 (stereo unspecified) (10 µM)	0
NCC1CCC(CNc2nc(NCc3ccccc3OC(F)(F)F)ncc2[N+](=O)[O-])CC1 (stereo unspecified) [PKC-theta inhibitor] (10 µM)	0
O=C1Nc2ccc(I)cc2/C1=C/c1cc(Br)c(O)c(Br)c1 (10 µM)	0
COc1cc(-c2oc3cc(O)cc(O)c3c(=O)c2O)ccc1O [Isorhamnetin] (10 µM)	0
O=C1OC(/C=C/c2ccccc2)=NC/1=C\c1cccnc1 (10 µM)	0
Cn1ncc(NC(=O)c2nc(-c3c(F)cccc3F)sc2N)c1N1CC[C@@H](N)[C@H](F)CC1 (10 µM)	0
CNC(=O)CNc1cnc2ccc(-c3ccc(OC)c(OC)c3)cc2n1 (10 µM)	0
CO[C@H]1C[C@@H]2CC[C@@H](C)[C@@](O)(O2)C(=O)C(=O)N2CCCC[C@H]2C(=O)O[C@H]([C@H](C)C[C@@H]2CC[C@@H](OCCO)[C@H](OC)C2)CC(=O)[C@H](C)/C=C(\C)[C@@H](O)[C@@H](OC)C(=O)[C@H](C)C[C@H](C)/C=C/C=C/C=C/1C [Everolimus] (10 µM)	0
O=C(Nc1cccnc1)c1cc(-c2ccnc(F)c2)ccc1OCc1ccccc1 (10 µM)	0
COc1c(O)cc2oc(-c3ccc(O)cc3)cc(=O)c2c1O [Hispidulin] (10 µM)	0
O=C1CC[C@H](NC(=O)Cc2ccccc2)C(=O)N1 [Antineoplaston A10] (10 µM)	0
CC(C)Oc1ccc(F)c(-c2cnc(N)c(C(=O)Nc3cnccc3N3CCC[C@@H](C(=O)O)C3)n2)c1 (2 µM)	1

SMILES	number of time points
Nc1nc2c(nc(Br)n2[C@@H]2O[C@@H]3COP(=O)(O)O[C@H]3[C@H]2O)c(=O)[nH]1 [8-Bromo-cGMP (sodium)] (10 µM)	0
Cc1cc(-n2c(=O)ccc3c[nH]c4nccc-4c32)ccc1F (10 µM)	0
CO[C@H]1CC[C@H](N2C(=O)CNc3ncc(-c4ccc(C(C)(C)O)nc4)nc32)CC1 (2.5 µM)	0
COc1cc2c(cc1OC)/C(=C/c1ccc(O)cc1)C(=O)N2 (10 µM)	0
NCCOc1ccc(Cl)cc1C(=O)Nc1ccc([N+](=O)[O-])cc1Cl [HJC0152 hydrochloride] (2 µM)	0
CCN(CC)CCOc1ccc(Nc2nc(-c3ccccc3NC(=O)CCN3CCN(C)CC3)nc3ccccc23)cc1 (2.5 µM)	0
C=CC(=O)N1CCN(C(=O)CNc2cc(I)c(Cl)cc2O)CC1 [K-Ras(G12C) inhibitor 12] (10 µM)	0
N[C@@H]1CCCN(c2c(/C=C3\SC(=O)NC3=O)cccc2-c2ccccc2)C1 (10 µM)	0
O=C(Nc1cc(Cl)cc2c1[nH]c1cnccc12)c1cccnc1 (10 µM)	0
C=C1C(=O)[C@@]23[C@H](O)C[C@@H]4C(C)(C)C(=O)CC[C@@]4(C)[C@@H]2CC[C@@H]1[C@H]3O [Glaucocalyxin A] (2.5 µM)	0
C[C@@H]1O[C@@H](Oc2cc(O)c3c(=O)c(O[C@@H]4O[C@@H](C)[C@H](O)[C@@H](O)[C@H]4O)c(-c4ccc(O)cc4)oc3c2)[C@H](O)[C@H](O)[C@H]1O [Kaempferitrin] (10 µM)	0
Cc1c(C(=O)Nc2ccc(Oc3ccnc4[nH]cc(-c5ccccc5)c34)c(F)c2)c(=O)n(-c2ccc(F)cc2)n1C (10 µM)	0
c1nc2c(NC3CCCCC3)nc(Nc3ccc(N4CCOCC4)cc3)nc2[nH]1 [Reversine] (10 µM)	0
CN1CCN(c2ccc(Nc3ncc4cc(C#N)c(=O)n(C5CCCC5)c4n3)cc2)CC1 (10 µM)	0
NC[C@@](O)(c1ccc(Cl)cc1)c1ccc(-c2cn[nH]c2)cc1 (10 µM)	0

Six entries from above, reformatted.

| SMILES | number of time points |
| --- | --- |
| O=C(Nc1cc(Cl)cc2c1[nH]c1cnccc12)c1cccnc1 (10 µM) | 0 |
| C=C1C(=O)[C@@]23[C@H](O)C[C@@H]4C(C)(C)C(=O)CC[C@@]4(C)[C@@H]2CC[C@@H]1[C@H]3O [Glaucocalyxin A] (2.5 µM) | 0 |
| C[C@@H]1O[C@@H](Oc2cc(O)c3c(=O)c(O[C@@H]4O[C@@H](C)[C@H](O)[C@@H](O)[C@H]4O)c(-c4ccc(O)cc4)oc3c2)[C@H](O)[C@H](O)[C@H]1O [Kaempferitrin] (10 µM) | 0 |
| Cc1c(C(=O)Nc2ccc(Oc3ccnc4[nH]cc(-c5ccccc5)c34)c(F)c2)c(=O)n(-c2ccc(F)cc2)n1C (10 µM) | 0 |
| c1nc2c(NC3CCCCC3)nc(Nc3ccc(N4CCOCC4)cc3)nc2[nH]1 [Reversine] (10 µM) | 0 |
| CN1CCN(c2ccc(Nc3ncc4cc(C#N)c(=O)n(C5CCCC5)c4n3)cc2)CC1 (10 µM) | 0 |
